Results reported in article doi:10.1101/2020.02.04.934398.
These are yes or no findings as the source states them, for the method shown. In cells and extracts the contact can be indirect. A yes stands for co-enrichment or nearness to the bait. Other partners may have been found. Sequences can lack the tags named with a protein.

Sequences of proteins named here, by UniProt entry; tags and fusion partners are left off.
UniProt O60216: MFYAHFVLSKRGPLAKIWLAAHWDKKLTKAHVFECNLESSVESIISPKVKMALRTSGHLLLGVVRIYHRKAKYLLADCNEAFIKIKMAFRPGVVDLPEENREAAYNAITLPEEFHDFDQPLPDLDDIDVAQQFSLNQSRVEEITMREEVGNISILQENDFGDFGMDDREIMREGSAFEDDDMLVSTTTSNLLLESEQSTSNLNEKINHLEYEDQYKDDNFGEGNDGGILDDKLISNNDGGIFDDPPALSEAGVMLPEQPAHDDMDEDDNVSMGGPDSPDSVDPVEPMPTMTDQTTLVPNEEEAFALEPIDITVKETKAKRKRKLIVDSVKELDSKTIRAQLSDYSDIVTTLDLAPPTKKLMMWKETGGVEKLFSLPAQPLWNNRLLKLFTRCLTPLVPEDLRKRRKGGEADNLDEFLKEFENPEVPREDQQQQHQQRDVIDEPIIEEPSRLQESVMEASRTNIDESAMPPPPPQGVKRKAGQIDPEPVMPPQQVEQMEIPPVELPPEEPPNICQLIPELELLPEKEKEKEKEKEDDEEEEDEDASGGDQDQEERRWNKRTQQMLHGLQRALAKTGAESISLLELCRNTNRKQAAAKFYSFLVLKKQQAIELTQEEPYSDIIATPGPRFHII
UniProt Q9UQE7: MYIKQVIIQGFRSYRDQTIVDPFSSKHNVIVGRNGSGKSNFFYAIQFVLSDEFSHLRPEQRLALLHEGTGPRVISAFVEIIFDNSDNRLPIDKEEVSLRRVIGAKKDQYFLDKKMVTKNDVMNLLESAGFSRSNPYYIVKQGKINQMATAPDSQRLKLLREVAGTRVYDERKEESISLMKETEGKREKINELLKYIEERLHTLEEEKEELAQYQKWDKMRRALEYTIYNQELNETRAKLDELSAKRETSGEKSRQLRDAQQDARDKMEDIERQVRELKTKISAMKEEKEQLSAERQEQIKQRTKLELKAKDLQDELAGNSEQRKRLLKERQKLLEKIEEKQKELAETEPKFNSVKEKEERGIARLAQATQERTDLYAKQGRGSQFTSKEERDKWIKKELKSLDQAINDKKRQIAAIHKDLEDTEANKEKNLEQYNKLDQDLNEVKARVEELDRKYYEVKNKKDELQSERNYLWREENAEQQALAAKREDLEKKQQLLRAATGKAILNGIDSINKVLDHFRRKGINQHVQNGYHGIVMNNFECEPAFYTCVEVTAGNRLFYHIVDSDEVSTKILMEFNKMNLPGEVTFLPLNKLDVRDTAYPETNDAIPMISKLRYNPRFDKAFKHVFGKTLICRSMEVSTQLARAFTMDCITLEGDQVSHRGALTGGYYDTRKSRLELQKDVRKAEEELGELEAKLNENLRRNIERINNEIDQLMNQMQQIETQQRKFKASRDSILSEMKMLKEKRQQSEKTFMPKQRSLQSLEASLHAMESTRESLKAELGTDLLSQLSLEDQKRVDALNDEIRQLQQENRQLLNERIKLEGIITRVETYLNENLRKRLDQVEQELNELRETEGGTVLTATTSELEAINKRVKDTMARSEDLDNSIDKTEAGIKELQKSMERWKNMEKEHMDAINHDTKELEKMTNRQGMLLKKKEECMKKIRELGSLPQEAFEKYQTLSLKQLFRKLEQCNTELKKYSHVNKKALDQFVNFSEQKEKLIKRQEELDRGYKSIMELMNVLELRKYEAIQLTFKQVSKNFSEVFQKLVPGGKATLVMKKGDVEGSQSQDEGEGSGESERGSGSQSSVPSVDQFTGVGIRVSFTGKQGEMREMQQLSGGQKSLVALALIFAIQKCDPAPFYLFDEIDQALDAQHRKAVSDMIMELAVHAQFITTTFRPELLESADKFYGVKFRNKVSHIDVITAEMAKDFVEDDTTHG
UniProt Q92973: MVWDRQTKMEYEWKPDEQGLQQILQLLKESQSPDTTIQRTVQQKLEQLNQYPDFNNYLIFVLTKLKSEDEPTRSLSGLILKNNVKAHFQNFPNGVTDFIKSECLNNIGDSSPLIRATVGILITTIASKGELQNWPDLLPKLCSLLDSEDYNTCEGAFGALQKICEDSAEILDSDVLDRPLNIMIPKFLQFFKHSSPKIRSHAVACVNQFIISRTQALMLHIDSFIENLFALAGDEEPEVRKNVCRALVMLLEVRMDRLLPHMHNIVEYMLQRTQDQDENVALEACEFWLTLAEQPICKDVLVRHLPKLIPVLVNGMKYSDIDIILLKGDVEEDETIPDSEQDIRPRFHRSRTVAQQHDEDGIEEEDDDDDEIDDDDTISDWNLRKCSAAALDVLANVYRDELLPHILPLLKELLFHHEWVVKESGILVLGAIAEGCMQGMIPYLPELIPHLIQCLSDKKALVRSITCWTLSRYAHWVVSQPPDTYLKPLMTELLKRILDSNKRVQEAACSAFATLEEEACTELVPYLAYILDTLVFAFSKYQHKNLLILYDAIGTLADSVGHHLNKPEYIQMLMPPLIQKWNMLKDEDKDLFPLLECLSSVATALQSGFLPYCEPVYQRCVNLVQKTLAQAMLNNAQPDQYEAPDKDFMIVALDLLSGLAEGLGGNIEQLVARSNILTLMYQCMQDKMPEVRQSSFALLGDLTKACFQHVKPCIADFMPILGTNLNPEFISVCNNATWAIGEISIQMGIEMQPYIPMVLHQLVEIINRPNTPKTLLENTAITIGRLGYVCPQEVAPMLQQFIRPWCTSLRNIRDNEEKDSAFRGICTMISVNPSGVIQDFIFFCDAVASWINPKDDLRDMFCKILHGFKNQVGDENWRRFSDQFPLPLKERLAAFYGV
UniProt P12270: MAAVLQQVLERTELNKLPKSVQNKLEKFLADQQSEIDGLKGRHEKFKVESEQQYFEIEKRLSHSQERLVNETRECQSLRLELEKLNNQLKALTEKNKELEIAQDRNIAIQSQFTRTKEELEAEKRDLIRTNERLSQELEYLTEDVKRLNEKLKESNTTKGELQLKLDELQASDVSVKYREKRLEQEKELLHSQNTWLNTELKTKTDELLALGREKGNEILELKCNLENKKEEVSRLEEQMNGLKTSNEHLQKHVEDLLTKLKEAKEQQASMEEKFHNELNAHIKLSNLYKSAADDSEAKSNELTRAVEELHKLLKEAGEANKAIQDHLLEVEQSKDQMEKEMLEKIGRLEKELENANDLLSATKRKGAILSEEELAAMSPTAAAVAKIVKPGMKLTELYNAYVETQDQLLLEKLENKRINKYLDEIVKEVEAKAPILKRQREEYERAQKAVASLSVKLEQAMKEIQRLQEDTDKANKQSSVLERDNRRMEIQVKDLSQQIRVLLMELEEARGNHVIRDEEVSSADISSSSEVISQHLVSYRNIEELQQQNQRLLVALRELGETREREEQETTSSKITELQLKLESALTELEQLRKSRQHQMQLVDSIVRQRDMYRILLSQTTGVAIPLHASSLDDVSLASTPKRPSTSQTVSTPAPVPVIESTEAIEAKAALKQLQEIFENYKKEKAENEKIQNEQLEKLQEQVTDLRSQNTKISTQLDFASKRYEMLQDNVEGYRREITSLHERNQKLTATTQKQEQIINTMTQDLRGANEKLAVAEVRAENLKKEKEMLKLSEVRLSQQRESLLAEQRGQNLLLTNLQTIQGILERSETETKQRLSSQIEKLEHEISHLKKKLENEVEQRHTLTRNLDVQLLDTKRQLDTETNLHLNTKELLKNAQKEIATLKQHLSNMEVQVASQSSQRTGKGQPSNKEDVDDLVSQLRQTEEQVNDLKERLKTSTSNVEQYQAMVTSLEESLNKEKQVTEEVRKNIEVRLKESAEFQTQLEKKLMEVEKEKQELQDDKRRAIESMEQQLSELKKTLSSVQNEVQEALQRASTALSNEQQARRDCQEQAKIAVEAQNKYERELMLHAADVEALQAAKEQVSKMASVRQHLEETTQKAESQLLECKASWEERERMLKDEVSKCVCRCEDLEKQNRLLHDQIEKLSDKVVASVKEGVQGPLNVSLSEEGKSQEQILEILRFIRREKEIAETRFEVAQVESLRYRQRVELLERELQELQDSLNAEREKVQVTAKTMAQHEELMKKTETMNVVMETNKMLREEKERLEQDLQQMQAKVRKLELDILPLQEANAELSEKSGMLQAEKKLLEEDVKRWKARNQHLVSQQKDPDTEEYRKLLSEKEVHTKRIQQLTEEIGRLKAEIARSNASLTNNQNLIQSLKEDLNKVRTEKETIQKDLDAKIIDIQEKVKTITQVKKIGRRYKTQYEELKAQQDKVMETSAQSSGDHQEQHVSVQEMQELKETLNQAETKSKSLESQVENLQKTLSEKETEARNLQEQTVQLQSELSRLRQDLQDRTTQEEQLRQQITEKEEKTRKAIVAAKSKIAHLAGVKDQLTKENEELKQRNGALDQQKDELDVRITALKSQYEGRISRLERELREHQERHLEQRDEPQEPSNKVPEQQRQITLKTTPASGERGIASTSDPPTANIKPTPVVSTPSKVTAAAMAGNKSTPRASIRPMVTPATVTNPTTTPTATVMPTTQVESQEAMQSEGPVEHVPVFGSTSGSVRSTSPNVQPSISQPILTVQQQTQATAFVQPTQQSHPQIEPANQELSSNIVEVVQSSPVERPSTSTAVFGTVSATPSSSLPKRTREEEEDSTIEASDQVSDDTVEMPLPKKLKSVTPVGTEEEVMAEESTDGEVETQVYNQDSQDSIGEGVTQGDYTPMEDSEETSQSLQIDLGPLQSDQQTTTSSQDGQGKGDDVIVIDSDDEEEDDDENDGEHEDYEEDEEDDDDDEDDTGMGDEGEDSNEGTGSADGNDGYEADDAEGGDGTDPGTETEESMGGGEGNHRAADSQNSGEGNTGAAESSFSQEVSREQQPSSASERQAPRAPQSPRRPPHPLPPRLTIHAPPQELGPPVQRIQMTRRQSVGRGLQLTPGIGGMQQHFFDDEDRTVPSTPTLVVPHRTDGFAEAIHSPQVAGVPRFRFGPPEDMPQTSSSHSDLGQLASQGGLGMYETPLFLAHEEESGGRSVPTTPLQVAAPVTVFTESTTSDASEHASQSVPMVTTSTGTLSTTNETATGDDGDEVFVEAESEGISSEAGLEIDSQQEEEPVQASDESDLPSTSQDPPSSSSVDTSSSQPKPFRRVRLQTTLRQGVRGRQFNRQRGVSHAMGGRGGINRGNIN
UniProt O14980: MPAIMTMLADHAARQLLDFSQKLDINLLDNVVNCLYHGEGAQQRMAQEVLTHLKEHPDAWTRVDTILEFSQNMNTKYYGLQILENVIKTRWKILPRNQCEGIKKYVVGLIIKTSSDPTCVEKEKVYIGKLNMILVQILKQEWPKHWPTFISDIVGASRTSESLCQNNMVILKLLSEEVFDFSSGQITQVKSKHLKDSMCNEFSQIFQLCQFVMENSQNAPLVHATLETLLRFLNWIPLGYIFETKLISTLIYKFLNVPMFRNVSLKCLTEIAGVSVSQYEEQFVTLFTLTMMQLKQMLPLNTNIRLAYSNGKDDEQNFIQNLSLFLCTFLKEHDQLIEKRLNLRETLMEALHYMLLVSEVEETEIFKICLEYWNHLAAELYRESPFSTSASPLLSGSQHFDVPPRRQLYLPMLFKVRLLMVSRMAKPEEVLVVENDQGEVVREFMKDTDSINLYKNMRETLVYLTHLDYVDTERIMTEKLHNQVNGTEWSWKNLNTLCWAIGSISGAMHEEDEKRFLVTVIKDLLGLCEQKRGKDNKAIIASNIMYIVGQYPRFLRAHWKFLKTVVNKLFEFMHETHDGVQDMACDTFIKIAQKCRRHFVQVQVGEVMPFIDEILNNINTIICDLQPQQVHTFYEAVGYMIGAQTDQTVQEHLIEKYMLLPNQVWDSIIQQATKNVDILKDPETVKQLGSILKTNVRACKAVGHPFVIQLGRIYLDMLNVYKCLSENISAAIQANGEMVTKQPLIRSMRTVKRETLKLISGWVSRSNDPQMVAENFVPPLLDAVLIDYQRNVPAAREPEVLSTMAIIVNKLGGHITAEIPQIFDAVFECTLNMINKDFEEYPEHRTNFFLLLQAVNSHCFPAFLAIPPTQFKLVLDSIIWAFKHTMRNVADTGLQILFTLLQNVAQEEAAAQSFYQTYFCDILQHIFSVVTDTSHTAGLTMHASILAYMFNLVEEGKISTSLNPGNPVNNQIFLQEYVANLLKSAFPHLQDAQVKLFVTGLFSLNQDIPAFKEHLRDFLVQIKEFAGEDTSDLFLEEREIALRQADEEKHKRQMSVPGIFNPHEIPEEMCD

T1: FLAG-tagged mouse Nucleoporin 153 (mouse) (UniProt E9Q3G8)
T1 sequence: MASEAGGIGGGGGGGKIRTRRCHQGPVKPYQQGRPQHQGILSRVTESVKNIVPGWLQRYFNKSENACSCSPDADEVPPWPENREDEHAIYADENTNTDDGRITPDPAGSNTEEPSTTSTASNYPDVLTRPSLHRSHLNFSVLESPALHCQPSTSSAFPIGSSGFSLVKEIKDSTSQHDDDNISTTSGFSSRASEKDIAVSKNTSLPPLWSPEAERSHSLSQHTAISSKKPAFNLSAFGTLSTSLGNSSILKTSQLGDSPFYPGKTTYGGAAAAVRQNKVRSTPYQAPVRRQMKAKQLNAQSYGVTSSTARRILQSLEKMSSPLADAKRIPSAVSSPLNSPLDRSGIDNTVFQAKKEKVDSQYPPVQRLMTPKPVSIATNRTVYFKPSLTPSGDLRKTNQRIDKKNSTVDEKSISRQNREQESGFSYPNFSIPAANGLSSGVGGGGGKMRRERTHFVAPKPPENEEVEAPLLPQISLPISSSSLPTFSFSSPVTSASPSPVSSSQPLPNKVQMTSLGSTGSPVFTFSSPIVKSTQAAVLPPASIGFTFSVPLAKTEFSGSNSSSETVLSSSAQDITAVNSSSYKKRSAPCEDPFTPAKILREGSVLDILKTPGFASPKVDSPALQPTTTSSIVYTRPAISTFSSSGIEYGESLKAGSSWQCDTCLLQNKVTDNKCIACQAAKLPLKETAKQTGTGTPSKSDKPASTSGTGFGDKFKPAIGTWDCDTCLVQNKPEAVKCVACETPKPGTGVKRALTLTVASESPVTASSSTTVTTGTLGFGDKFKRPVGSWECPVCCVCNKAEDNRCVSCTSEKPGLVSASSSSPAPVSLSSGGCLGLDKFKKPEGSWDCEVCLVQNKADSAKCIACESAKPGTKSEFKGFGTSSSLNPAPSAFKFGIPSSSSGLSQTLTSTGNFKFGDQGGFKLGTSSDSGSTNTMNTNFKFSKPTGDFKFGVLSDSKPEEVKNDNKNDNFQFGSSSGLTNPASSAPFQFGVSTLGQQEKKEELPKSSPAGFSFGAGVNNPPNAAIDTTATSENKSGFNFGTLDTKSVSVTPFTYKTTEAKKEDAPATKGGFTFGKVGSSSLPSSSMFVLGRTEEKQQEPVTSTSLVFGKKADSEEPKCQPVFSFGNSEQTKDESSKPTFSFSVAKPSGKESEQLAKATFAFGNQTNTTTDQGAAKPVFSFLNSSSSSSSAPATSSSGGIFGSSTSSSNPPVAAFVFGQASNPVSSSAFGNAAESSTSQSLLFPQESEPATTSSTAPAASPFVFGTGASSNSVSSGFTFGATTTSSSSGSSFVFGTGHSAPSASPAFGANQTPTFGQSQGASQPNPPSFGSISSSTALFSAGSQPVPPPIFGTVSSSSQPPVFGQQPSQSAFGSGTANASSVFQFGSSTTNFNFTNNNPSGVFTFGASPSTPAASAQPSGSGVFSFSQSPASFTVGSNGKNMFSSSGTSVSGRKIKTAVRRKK

B1: SMC1A (protein, UniProt Q14683 1-1233)
chain: MGFLKLIEIENFKSYKGRQIIGPFQRFTAIIGPNGSGKSNLMDAISFVLGEKTSNLRVKTLRDLIHGAPVGKPAANRAFVSMVYSEEGAEDRTFARVIVGGSSEYKINNKVVQLHEYSEELEKLGILIKARNFLVFQGAVESIAMKNPKERTALFEEISRSGELAQEYDKRKKEMVKAEEDTQFNYHRKKNIAAERKEAKQEKEEADRYQRLKDEVVRAQVQLQLFKLYHNEVEIEKLNKELASKNKEIEKDKKRMDKVEDELKEKKKELGKMMREQQQIEKEIKEKDSELNQKRPQYIKAKENTSHKIKKLEAAKKSLQNAQKHYKKRKGDMDELEKEMLSVEKARQEFEERMEEESQSQGRDLTLEENQVKKYHRLKEEASKRAATLAQELEKFNRDQKADQDRLDLEERKKVETEAKIKQKLREIEENQKRIEKLEEYITTSKQSLEEQKKLEGELTEEVEMAKRRIDEINKELNQVMEQLGDARIDRQESSRQQRKAEIMESIKRLYPGSVYGRLIDLCQPTQKKYQIAVTKVLGKNMDAIIVDSEKTGRDCIQYIKEQRGEPETFLPLDYLEVKPTDEKLRELKGAKLVIDVIRYEPPHIKKALQYACGNALVCDNVEDARRIAFGGHQRHKTVALDGTLFQKSGVISGGASDLKAKARRWDEKAVDKLKEKKERLTEELKEQMKAKRKEAELRQVQSQAHGLQMRLKYSQSDLEQTKTRHLALNLQEKSKLESELANFGPRINDIKRIIQSREREMKDLKEKMNQVEDEVFEEFCREIGVRNIREFEEEKVKRQNEIAKKRLEFENQKTRLGIQLDFEKNQLKEDQDKVHMWEQTVKKDENEIEKLKKEEQRHMKIIDETMAQLQDLKNQHLAKKSEVNDKNHEMEEIRKKLGGANKEMTHLQKEVTAIETKLEQKRSDRHNLLQACKMQDIKLPLSKGTMDDISQEEGSSQGEDSVSGSQRISSIYAREALIEIDYGDLCEDLKDAQAEEEIKQEMNTLQQKLNEQQSVLQRIAAPNMKAMEKLESVRDKFQETSDEFEAARKRAKKAKQAFEQIKKERFDRFNACFESVATNIDEIYKALSRNSSAQAFLGPENPEEPYLDGINYNCVAPGKRFRPMDNLSGGEKTVAALALLFAIHSYKPAPFFVLDEIDAALDNTNIGKVANYIKEQSTCNFQAIVISLKEEFYTKAESLIGVYPEQGDCVISKVLTFDLTKYPDANPNPNEQ

Molecular target: T1, FLAG-tagged mouse Nucleoporin 153 (mouse)
Assay: affinity purification with mass spectrometry

binding, binds:
IPO5 (from UniProt O00410 1-1097), RAD21 (from UniProt O60216 1-631), SMC3 (from UniProt Q9UQE7 1-1217), TNPO1 (from UniProt Q92973 1-898), TPR (from UniProt P12270 1-2363), XPO-1 (from UniProt O14980 1-1071), B1
